Assay results taken from PMC10936414 (mBio, 2024).

Tests used:
VSV-SARS-CoV-2 = assay: organism not typed; type: cell-based; settings: MA104, read-out: EC50 against VSV-SARS-CoV-2, MA104 cells, pre-treated 1 h, 24 h infection, MOI = 1, GFP signal
VSV = assay: microbe, parasite or virus in culture; type: cell-based; settings: Vesicular stomatitis virus, MA104, read-out: EC50 against VSV

CN[C@@H]1C[C@H]2O[C@@](C)([C@@H]1OC)n1c3ccccc3c3c4c(c5c6ccccc6n2c5c31)C(=O)NC4 [Staurosporine, staurosporine]
EC50 (VSV-SARS-CoV-2): < 10 nM
EC50 (VSV): 100 nM
